Here are results for 40 molecules from the supplement of paper PMC8256030.

Test [1] concerns SARS-CoV-2 -1 PRF reporter mCherry-FSE-GFP(-1). The test is described as follows: mCherry (red) intensity as percent of control; higher = higher upstream reporter expression. Conditions: 10 µM; 24 h; HEK293T.
Test [2] shares this test system. The test is described as follows: percent effect, decrease of GFP/mCherry ratio (-1 PRF reporter) relative to controls; higher = stronger frameshift inhibition. The following applies: 10 µM; 24 h; HEK293T.

SMILES strings stand for the structures. “And” between values parts separate entries of the source, which are not always exact repeats. Equal entries are not always repeated. Structures can show the parent of a compound that is named as a salt. Some of the results follow. This data set is noisy: repeats of one test often differ as much as different tests do.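 HEK293T cells were given each compound shortly before transfection with a reporter in which red mCherry is followed by the SARS-CoV-2 frameshift element and then GFP in the −1 frame, so GFP appears only after frameshifting.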

On to `CC(=O)[C@@]1(O)[C@H](O)C[C@H]2[C@@H]3CCC4=CC(=O)CC[C@]4(C)[C@H]3CC[C@@]21C` [algestone], for which the mCherry in test [1] came out at 90.6%. In test [2], the percent effect was -0.9%.

Consider `O=C(O)CCNC(=O)c1ccc(/N=N/c2ccc(O)c(C(=O)O)c2)cc1` [balsalazide], for which the mCherry in test [1] was 109%. Further, the percent effect in test [2] is -5.07%.

On to `CCOC(=O)OC(C)OC(=O)[C@@H]1N2C(=O)[C@@H](NC(=O)[C@H](N)c3ccccc3)[C@H]2SC1(C)C` (stereo not given in full) [bacampicillin], for which, in test [1], the mCherry was 101%. Further, the percent effect in test [2] stood at 1.14%.

`N/N=c1/ccc(C(N)=O)n[nH]1` [hydracarbazine] yielded a mCherry in test [1] of 111%. In addition, the percent effect in test [2] is -19.3%.

In the case of `Cc1cc(C(C)(C)C)c(O)c(C)c1CC1=NCCN1` [oxymetazoline], the mCherry in test [1] was 116% and 111%. Also, the percent effect in test [2] was -2.36% and 2.59%.

As to `CCOC(=S)SSC(=S)OCC` [dixanthogen], in test [1], the mCherry is 66.4%. The percent effect in test [2] is -2.88%.

In the case of `CO[C@@]1(NC(=O)CSCC#N)C(=O)N2C(C(=O)O)=C(CSc3nnnn3C)CS[C@@H]21`, the mCherry in test [1] was found to be 141%. Moreover, in test [2], the percent effect is -3.87%.

The molecule `N=C(N)NCCC[C@@H](NC(=O)[C@@H]1CCCN1C(=O)[C@@H]1CSSCCC(=O)N[C@@H](Cc2ccc(O)cc2)C(=O)N[C@@H](Cc2ccccc2)C(=O)N[C@@H](CCC(N)=O)C(=O)N[C@@H](CC(N)=O)C(=O)N1)C(=O)NCC(N)=O` had a mCherry in test [1] of 111%. In test [2], the percent effect was -4.64%.

As to `CCc1c(C)[nH]c2c1C(=O)C(CN1CCOCC1)CC2` (stereo not given) [molindone], in test [1], the mCherry is 104%. The percent effect in test [2] is -11.7%.

Molecule `NCCc1cnc[nH]1` gave a mCherry in test [1] of 118%. Also, the percent effect in test [2] is -4.85%.

Take `CN(C)CCC[C@@]1(c2ccc(F)cc2)OCc2cc(C#N)ccc21` [escitalopram]: the mCherry in test [1] is 107% and 122%. Besides, the percent effect in test [2] was -4.25% and 3.77%.

Consider `CCCCC1(COC(=O)CCC(=O)O)C(=O)N(c2ccccc2)N(c2ccccc2)C1=O` [suxibuzone], for which, in test [1], the mCherry was 102%. Besides, the percent effect in test [2] was -0.947%.

In turn, `CCCCC[C@H](O)/C=C/[C@@H]1[C@H]2C/C(=C/CCCC(=O)O)O[C@H]2C[C@H]1O` [epoprostenol] came in with a mCherry in test [1] of 103%. Further, the percent effect in test [2] was -0.837%.

`CN(C)CCCN1c2ccccc2CCc2ccc(Cl)cc21` [clomipramine] had a mCherry in test [1] of 106%. The percent effect in test [2] turned out to be 1.62%.

On to `C[C@@H]1C[C@H]2[C@@H]3C[C@H](F)C4=CC(=O)C=C[C@]4(C)[C@@]3(F)[C@@H](O)C[C@]2(C)[C@@]1(OC(=O)c1ccco1)C(=O)SCF` [fluticasone furoate], for which the mCherry in test [1] stood at 108%. Further, the percent effect in test [2] came to 2.5%.

`COc1ccc2nc3cc(Cl)ccc3c(Nc3cc(CN4CCCC4)c(O)c(CN4CCCC4)c3)c2n1` [pyronaridine] yielded a mCherry in test [1] of 20.8%. For the same molecule, in test [2], the percent effect stood at 10.8%.

On to `CC(=O)N=c1sc(S(N)(=O)=O)nn1C`, for which the mCherry in test [1] worked out at 117%. Besides, the percent effect in test [2] is -0.685%.

`N[C@@H](CSCC(=O)O)C(=O)O` [Carbocisteine] came in with a mCherry in test [1] of 99.2%. Besides, the percent effect in test [2] is -2.78%.

Take `CC(=O)OCC(=O)[C@@]1(OC(C)=O)[C@@H](C)C[C@H]2[C@@H]3C[C@H](F)C4=CC(=O)C=C[C@]4(C)[C@@]3(F)[C@@H](O)C[C@@]21C`: the mCherry in test [1] was 102%. Further, the percent effect in test [2] is -0.12%.

In turn, `CCOC(=O)O[C@]1(C(=O)OCCl)CC[C@H]2[C@@H]3CCC4=CC(=O)C=C[C@]4(C)[C@H]3[C@@H](O)C[C@@]21C` [Loteprednol] showed a mCherry in test [1] of 96.8%. Also, the percent effect in test [2] was -0.83%.

In test [1], `C[C@@H](c1nc(-c2ccc(C#N)cc2)cs1)[C@](O)(Cn1cncn1)c1ccc(F)cc1F` [ravuconazole] displayed a mCherry of 40.5%. Further, in test [2], the percent effect is -16%.

In test [1], `CC(C)(C)C(=O)NCCCC(=O)O` [pivagabine] displayed a mCherry of 98.3%. Moreover, the percent effect in test [2] was -2.9%.

As to `NC(N)=NC(N)=NCCc1ccccc1`, the mCherry in test [1] worked out at 96.8%. In addition, in test [2], the percent effect was -1.72%.

In turn, `OC[C@H]1O[C@H](O[C@H]2[C@H](O)[C@@H](O)C(O)O[C@@H]2CO)[C@H](O)[C@@H](O)[C@@H]1O` (stereo not given in full) yielded a mCherry in test [1] of 108%. Further, the percent effect in test [2] was -0.595%.

Consider `CC/C=C\C/C=C\C/C=C\C/C=C\C/C=C\C/C=C\CCC(=O)O` [doconexent], for which, in test [1], the mCherry turned out to be 95%. The percent effect in test [2] was -1.46%.

For the molecule `CN(C)CCC(c1ccc(Cl)cc1)c1ccccn1` (stereo not given) [chlorphenamine], the mCherry in test [1] is 110% and 97.9%. In test [2], the percent effect is -0.453% and -4.06%.

With `CN1CC(=O)N2[C@H](c3ccc4c(c3)OCO4)c3[nH]c4ccccc4c3C[C@@H]2C1=O`, the mCherry in test [1] turned out to be 107%. In addition, the percent effect in test [2] was -1.31%.

Consider `CCC1C(=O)NC(=O)C1(C)c1ccccc1` (stereo not given) [fenimide], for which, in test [1], the mCherry was determined as 91.3%. Besides, in test [2], the percent effect is -10.2%.

Consider `Cc1ccc(C(C)C)c(O)c1` [Thymol], for which the mCherry in test [1] came to 80.6%. In addition, the percent effect in test [2] was -2.02%.

As to `Cc1ncc(CO)c(CO)c1O` [pyridoxine], the mCherry in test [1] was found to be 110%. Besides, in test [2], the percent effect is -2.67%.

Molecule `COc1c2occc2cc2ccc(=O)oc12` yielded a mCherry in test [1] of 111%. In test [2], the percent effect was -1.26%.

`CC[C@H](NC(=O)c1c(O)c(-c2ccccc2)nc2ccccc12)c1ccccc1` [talnetant] yielded a mCherry in test [1] of 87.2%. The percent effect in test [2] is -9.59%.

On to `CN(C/C=C/c1ccccc1)Cc1cccc2ccccc12` [naftifine], for which the mCherry in test [1] turned out to be 111%. In test [2], the percent effect is -2.62%.

With `CCC(C/C=C/c1ccccc1)(c1ccccc1)N(C)CC1CC1` (stereo not given) [igmesine], the mCherry in test [1] is 96.6%. Moreover, the percent effect in test [2] came to 0.744%.

Turning to `CCNC(=O)[C@@H]1CCCN1C(=O)[C@H](CCCNC(=N)N)NC(=O)[C@H](CC(C)C)NC(=O)[C@@H](COC(C)(C)C)NC(=O)[C@H](Cc1ccc(O)cc1)NC(=O)[C@H](CO)NC(=O)[C@H](Cc1c[nH]c2ccccc12)NC(=O)[C@H](Cc1cnc[nH]1)NC(=O)[C@@H]1CCC(=O)N1` [buserelin], in test [1], the mCherry was determined as 102%. The percent effect in test [2] was -0.805%.

`CC(Oc1c(Cl)cccc1Cl)C1=NCCN1` (stereo not given) [Lofexidine·HCl] yielded a mCherry in test [1] of 104%. In addition, in test [2], the percent effect was -4.07%.

As to `CSCC[C@H](N)C(=O)O` [methionine], in test [1], the mCherry came to 111%. The percent effect in test [2] is -3.88%.

As for `CO/N=C(\C(=O)N[C@@H]1C(=O)N2C(C(=O)[O-])=C(C[N+]3(C)CCCC3)CS[C@H]12)c1csc(N)n1` [Cefepime], in test [1], the mCherry came to 108%. Further, the percent effect in test [2] is -2.35%.

`NC(=O)CCCCC1CCSS1` (stereo not given) gave a mCherry in test [1] of 109%. In addition, the percent effect in test [2] is -0.0133%.

Consider `CCCCCCCCCCCCCCCCNc1ccc(C(=O)O)cc1` [cetaben], for which the mCherry in test [1] worked out at 69.7%. Also, the percent effect in test [2] was -10.8%.
